Measurements as given in the supplement of paper PMC10849652.
The other results are listed elsewhere or left out.

Sequences of proteins named here, by UniProt entry; tags and fusion partners are left off. A change or cut given only in a name is not applied to a line headed by its entry.
UniProt Q9H467: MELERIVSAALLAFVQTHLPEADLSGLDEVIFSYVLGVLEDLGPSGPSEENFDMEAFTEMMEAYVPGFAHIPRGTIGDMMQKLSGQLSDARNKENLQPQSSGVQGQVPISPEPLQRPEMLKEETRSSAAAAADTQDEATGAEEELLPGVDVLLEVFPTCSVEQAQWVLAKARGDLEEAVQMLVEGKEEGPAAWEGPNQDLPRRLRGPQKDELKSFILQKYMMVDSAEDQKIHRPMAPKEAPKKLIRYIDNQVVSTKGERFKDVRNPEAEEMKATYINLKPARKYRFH
UniProt O75935, whole entry, looked up: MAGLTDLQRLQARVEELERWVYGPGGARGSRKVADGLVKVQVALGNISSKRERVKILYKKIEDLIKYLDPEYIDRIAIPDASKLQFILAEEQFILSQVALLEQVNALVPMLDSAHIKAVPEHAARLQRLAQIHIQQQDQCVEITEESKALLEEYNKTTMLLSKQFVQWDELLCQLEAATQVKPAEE
UniProt Q8N465: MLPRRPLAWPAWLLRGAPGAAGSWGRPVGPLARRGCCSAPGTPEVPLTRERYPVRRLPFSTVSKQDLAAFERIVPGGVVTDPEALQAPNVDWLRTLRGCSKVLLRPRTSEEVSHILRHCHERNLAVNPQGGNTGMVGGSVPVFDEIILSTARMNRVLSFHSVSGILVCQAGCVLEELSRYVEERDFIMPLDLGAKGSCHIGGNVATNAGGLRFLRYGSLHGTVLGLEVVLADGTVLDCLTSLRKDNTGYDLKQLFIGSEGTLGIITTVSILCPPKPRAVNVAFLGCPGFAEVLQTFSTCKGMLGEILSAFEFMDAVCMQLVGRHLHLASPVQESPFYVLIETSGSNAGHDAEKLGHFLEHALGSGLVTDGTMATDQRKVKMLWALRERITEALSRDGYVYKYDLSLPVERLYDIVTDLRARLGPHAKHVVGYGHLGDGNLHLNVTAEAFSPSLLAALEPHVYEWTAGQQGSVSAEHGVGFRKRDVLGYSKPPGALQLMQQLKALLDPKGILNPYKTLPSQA
UniProt P53634: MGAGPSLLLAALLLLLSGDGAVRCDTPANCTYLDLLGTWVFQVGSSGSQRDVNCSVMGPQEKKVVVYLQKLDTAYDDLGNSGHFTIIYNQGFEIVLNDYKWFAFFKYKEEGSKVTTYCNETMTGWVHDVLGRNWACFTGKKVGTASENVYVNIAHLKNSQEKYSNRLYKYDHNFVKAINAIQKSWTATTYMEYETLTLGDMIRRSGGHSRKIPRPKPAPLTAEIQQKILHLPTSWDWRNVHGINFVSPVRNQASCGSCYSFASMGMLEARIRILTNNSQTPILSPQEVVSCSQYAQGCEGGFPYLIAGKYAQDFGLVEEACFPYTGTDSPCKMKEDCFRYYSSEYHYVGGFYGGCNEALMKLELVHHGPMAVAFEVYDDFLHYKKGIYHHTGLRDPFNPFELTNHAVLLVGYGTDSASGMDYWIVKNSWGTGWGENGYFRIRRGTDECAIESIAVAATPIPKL
UniProt P49711: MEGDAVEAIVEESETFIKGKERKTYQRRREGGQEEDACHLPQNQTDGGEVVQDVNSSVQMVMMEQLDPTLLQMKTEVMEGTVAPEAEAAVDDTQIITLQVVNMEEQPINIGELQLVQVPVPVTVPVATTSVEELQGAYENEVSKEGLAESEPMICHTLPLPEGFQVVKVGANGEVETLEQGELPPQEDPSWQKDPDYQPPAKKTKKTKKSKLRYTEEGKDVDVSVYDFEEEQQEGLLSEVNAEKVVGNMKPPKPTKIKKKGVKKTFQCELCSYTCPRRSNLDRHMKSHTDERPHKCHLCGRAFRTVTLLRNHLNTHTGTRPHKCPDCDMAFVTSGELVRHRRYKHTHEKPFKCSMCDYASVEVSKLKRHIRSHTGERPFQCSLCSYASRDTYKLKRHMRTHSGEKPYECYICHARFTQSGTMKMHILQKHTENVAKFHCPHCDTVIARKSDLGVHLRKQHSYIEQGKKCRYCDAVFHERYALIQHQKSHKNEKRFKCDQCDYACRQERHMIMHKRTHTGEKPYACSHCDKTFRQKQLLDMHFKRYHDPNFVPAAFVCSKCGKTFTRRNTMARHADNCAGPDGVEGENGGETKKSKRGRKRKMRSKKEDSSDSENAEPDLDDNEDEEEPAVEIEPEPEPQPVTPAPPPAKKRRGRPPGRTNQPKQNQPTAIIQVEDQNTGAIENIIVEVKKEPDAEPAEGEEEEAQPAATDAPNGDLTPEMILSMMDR
UniProt Q6UW02: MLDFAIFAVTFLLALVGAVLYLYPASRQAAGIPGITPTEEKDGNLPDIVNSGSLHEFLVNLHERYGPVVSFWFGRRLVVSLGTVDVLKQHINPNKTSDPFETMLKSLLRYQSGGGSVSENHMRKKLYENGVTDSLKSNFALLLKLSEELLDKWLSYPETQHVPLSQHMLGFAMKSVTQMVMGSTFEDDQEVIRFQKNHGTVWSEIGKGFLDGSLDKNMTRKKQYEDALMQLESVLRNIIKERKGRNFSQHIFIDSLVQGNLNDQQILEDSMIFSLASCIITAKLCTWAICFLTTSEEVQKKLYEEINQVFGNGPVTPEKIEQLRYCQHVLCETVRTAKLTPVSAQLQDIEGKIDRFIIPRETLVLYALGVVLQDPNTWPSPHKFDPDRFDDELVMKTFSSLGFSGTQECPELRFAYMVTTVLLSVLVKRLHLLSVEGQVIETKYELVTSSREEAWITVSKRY
UniProt P32929, whole entry, looked up: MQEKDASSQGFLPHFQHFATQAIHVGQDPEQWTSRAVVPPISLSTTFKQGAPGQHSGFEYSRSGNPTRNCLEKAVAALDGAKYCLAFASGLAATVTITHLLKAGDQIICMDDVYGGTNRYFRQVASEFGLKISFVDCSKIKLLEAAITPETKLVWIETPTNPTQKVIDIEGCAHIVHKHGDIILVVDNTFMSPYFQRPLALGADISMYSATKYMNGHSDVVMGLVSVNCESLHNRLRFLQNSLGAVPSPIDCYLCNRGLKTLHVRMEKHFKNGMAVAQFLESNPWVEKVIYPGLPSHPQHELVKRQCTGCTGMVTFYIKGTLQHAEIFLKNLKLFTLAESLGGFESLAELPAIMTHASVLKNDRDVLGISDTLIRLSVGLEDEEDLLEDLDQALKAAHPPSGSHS
UniProt P21291: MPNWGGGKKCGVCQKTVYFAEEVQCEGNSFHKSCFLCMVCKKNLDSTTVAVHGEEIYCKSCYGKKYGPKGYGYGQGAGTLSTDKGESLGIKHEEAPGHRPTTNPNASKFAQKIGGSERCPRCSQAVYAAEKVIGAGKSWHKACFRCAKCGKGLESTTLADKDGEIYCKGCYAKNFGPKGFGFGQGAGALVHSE
UniProt Q05048: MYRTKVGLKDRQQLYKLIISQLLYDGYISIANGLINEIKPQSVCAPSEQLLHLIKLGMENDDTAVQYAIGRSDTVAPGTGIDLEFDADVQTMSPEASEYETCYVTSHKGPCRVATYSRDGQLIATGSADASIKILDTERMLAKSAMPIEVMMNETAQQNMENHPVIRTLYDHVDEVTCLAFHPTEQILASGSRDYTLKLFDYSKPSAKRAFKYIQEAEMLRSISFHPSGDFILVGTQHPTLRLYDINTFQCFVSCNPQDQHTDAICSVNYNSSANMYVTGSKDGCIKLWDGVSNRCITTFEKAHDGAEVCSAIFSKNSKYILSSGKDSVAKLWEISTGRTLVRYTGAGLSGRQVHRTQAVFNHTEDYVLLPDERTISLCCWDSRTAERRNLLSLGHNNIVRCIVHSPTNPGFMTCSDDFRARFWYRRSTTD
UniProt P14868: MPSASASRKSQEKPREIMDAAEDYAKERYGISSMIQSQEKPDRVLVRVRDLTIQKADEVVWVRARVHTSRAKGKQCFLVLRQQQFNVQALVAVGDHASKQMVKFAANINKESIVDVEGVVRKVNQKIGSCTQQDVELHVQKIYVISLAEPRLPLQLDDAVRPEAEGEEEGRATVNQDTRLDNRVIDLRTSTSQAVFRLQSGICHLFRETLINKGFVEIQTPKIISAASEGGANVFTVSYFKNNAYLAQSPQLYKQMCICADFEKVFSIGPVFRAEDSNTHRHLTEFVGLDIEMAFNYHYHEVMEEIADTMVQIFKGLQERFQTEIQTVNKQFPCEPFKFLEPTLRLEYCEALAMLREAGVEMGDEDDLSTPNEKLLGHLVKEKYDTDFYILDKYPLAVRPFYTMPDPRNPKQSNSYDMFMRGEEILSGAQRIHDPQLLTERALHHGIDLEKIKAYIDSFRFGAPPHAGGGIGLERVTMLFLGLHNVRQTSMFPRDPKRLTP
UniProt Q66K64, whole entry, looked up: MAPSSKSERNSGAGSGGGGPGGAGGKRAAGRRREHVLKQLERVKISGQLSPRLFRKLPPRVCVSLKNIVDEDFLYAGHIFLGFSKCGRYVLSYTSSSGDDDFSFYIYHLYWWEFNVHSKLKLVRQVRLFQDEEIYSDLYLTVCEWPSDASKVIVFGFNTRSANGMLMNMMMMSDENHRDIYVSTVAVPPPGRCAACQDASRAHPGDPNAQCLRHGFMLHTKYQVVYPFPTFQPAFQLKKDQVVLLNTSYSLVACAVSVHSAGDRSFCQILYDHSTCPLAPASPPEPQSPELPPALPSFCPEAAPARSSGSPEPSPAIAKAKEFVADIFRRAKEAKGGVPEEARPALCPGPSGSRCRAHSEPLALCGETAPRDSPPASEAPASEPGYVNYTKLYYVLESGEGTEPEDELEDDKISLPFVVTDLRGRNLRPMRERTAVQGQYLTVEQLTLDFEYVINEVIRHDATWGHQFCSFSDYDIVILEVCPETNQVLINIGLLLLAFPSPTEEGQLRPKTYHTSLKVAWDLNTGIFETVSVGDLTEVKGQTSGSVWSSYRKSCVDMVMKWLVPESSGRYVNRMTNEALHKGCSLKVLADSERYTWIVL
UniProt O60716: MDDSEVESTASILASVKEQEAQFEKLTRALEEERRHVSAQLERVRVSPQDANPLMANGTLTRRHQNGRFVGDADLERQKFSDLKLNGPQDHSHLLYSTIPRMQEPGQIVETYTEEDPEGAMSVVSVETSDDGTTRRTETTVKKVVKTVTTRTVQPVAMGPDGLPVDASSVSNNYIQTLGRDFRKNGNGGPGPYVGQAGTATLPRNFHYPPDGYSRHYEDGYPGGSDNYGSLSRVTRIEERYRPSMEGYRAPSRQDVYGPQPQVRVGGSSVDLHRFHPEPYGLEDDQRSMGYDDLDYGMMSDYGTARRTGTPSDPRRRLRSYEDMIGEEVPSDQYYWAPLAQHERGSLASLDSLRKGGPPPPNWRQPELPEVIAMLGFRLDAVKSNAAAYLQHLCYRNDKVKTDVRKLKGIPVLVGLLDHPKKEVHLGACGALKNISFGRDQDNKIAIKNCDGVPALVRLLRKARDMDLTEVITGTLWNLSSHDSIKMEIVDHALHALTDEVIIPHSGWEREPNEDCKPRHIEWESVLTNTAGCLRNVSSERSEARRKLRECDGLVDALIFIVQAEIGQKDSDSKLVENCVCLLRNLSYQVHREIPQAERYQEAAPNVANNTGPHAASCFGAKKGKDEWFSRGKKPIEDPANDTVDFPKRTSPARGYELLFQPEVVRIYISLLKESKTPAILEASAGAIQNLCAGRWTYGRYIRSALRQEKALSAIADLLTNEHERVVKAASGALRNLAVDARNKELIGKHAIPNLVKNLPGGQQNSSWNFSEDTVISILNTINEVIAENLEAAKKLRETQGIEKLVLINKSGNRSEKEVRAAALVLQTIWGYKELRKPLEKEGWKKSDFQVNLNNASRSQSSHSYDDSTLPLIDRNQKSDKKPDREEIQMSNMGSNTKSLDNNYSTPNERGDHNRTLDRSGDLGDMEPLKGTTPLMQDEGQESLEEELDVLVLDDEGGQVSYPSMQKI
UniProt Q92564: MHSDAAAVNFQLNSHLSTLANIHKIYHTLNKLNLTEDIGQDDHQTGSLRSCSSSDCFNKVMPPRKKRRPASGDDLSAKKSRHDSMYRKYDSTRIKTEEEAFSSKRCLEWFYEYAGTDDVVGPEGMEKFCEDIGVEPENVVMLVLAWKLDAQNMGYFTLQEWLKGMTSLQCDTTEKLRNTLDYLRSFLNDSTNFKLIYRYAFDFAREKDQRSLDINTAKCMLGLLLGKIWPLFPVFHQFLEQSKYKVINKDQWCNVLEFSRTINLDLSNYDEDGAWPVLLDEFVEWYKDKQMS
UniProt P11182, whole entry, looked up: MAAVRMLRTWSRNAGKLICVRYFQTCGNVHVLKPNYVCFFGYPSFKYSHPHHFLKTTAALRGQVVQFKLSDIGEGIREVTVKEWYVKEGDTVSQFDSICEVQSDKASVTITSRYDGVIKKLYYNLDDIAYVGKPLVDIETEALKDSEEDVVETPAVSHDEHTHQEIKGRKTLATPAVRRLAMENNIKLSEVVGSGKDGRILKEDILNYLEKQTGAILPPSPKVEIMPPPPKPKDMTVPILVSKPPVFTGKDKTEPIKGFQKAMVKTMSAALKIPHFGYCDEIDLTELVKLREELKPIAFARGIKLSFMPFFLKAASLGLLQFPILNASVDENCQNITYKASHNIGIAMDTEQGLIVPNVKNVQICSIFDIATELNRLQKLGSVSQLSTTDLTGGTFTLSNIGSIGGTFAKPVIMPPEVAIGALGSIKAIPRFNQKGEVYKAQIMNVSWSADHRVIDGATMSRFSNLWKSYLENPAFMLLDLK

Compound: C[C@@H]1COCCN1C2=NC(=NC(=C2)C3(CC3)S(=O)(=O)C)C4=C5C=CNC5=CC=C4
Experiment: log2 fold change, soluble protein after heating vs DMSO (PISA); higher = thermal stabilisation; K562 cells, 10 uM, 30 min; active = over 0.2 and 3.5 SD of the protein, either way, in both replicates (recomputed)
Method in brief: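 Quantification of soluble protein used TMTpro 16plex LC-MS/MS, with channel sums equalised. Samples were the supernatant after 21,000xg for 90 min of pooled aliquots from K562 cells (2×10^6 cells/mL) treated with 10 μM compound for 30 min, heated for 3 min over 48°C-58°C, and extracted in PBS with 0.5% NP-40 at 4°C. Values, from duplicates, describe thermal stability against control samples on a log2 fold-change scale.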

log2 fold change, inactive:
CUEDC2 (UniProt Q9H467) 0.026
DCTN3 (UniProt O75935) 0.104
CWC25 (UniProt Q9NXE8) -0.203
D2HGDH (UniProt Q8N465) 0.046
CTSC (UniProt P53634) -0.015
CTCF (UniProt P49711) -0.377
CYP20A1 (UniProt Q6UW02) 0.077
CTH (UniProt P32929) 0.029
CTNNA2 (UniProt P26232) -0.003
CTBP2 isoform 2 (UniProt P56545) 0.002
CSRP1 (UniProt P21291) -0.02
CSTF1 (UniProt Q05048) -0.017
DARS (UniProt P14868) -0.054
CXorf56 (UniProt Q9H5V9) -0.022
CYFIP2 (UniProt Q96F07) 0.049
DCAF15 (UniProt Q66K64) -0.094
CTNND1 (UniProt O60716) -0.295
DCAF1 (UniProt Q9Y4B6) 0.041
DCUN1D4 isoform 3 (UniProt Q92564) -0.041
CYBC1 (UniProt Q9BQA9) -0.047
CTNNA1 isoform 2 (UniProt P35221) -0.036
DBT (UniProt P11182) -0.014
CUL5 (UniProt Q93034) 0.052

Not a retest: entries from further up.
log2 fold change, inactive:
CTNNA1 isoform 2 (UniProt P35221) -0.036
DBT (UniProt P11182) -0.014
